Measurements reported in patent publication US11701376B2, “Nutritional compositions comprising human milk oligosaccharides and nucleotides and uses thereof for treating and/or preventing enteric viral infection” (priority 2010, dated 2023).
Some of these results come from one statement about several compounds together. At least one compound was matched to its structure with a doubt left.

Test system: H1N1 influenza virus
Format: cell-based
Details: HMO at 10 mg/mL, MDCK cells, FIG. 1

`CC(=O)N[C@H]1[C@H]([C@H](O)[C@H](O)CO)O[C@@](O[C@H]2[C@@H](O)[C@@H](CO)O[C@@H](O[C@H]3[C@H](O)[C@@H](O)C(O)O[C@@H]3CO)[C@@H]2O)(C(=O)O)C[C@@H]1O` (stereo partly shown) [3′SL, 3′-sialyllactose] was tested, and the “inhibition of virus infectivity” value was “greater than 90%”.
